SMILES strings stand for the structures. The list is a part of this screen's results and no random one: it is rich in T/C values a quarter to a half above the control, in often repeated tests (any T/C) and in doses without a T/C. Further doses and runs are listed elsewhere. T/C: endpoint of the treated group in % of that of the vehicle group. Some doses have a count of surviving animals in place of a T/C: the source holds a T/C of zero for them, seemingly a mark for toxic or unscored doses. Some doses without a T/C left all or most animals alive at the check, yet need not have been tolerated: the source hardly ever lists a survival T/C far under the control, and the zero likely stands for such cases as well. Counts of survivors are from the toxicity check (mostly the fifth day) where no day follows; animals may have died later. Schedule codes are those of the source, taken here to give the interval after Q, in days (D) or hours (H), and the number of doses after X. Some entries were tested several times; the results are listed from low to high. For survival time, the PubChem record calls one and a half times the control and up active, and a quarter to a half above the control has no call in these data; cut-offs in other NCI protocols can differ. Some T/C values are followed by the survivors on the day toxicity was checked, most often the fifth; without a count, all were alive then.

In the assay the test system is L1210 leukemia ip in BDF1 mice, survival T/C. Put plainly: NCI In Vivo Anticancer Drug Screen. Data for tumor model L1210 Leukemia (intraperitoneal) in B6D2F1 (BDF1) mice. The settings on record: T/C endpoint: mean survival time, higher T/C = longer survival.
The mark [1] stands for this setting: dose: 10.0 mg/kg/injection, schedule: Q01DX001 (ip), vehicle: saline.
[2] abbreviates: dose: 20.0 mg/kg/injection, schedule: Q01DX001 (ip), vehicle: saline.
Where [3] appears, read: dose: 300.0 mg/kg/injection, schedule: Q01DX001 (ip), vehicle: saline.
Setting [4] is: dose: 100.0 mg/kg/injection, schedule: Q04DX002 (ip), vehicle: saline with Tween-80.
Where [5] appears, read: dose: 200.0 mg/kg/injection, schedule: Q04DX002 (ip), vehicle: saline with Tween-80.
Setting [6] is: dose: 400.0 mg/kg/injection, schedule: Q04DX002 (ip), vehicle: saline with Tween-80.
Where [7] appears, read: dose: 400.0 mg/kg/injection, schedule: Q01DX001 (ip), vehicle: saline with Tween-80.
[8] abbreviates: dose: 200.0 mg/kg/injection, schedule: Q04DX003 (ip), vehicle: saline.
[9] abbreviates: dose: 400.0 mg/kg/injection, schedule: Q04DX003 (ip), vehicle: saline.
Setting [10] is: dose: 400.0 mg/kg/injection, schedule: Q01DX009 (ip), vehicle: Klucel (hydroxypropylcellulose) (HPC).
Setting [11] is: dose: 400.0 mg/kg/injection, schedule: Q04DX003 (ip), vehicle: Klucel (hydroxypropylcellulose) (HPC).
Where [12] appears, read: dose: 100.0 mg/kg/injection, schedule: Q04DX003 (ip), vehicle: saline.
Where [13] appears, read: dose: 200.0 mg/kg/injection, schedule: Q01DX009 (ip), vehicle: carboxymethylcellulose (CMC).

Turning to `CC1(C)CN1P(=O)(N1CC1(C)C)N1CC1(C)C` (stereo not drawn), the T/C is 130 % of control (dose: 1.5 mg/kg/injection, schedule: Q01DX009 (ip), vehicle: saline); 135 % of control (dose: 3.0 mg/kg/injection, schedule: Q01DX009 (ip), vehicle: saline); 127 % of control (dose: 5.0 mg/kg/injection, schedule: Q01DX001 (ip), vehicle: saline); 127 % of control under setting [1]; 127 % of control (dose: 10.0 mg/kg/injection, schedule: Q01DX009 (ip), vehicle: saline); 139 % of control under setting [2]. The T/C (dose: 75.0 mg/kg/injection, schedule: Q01DX001 (ip), vehicle: saline) was 142 % of control and the T/C (dose: 112.5 mg/kg/injection, schedule: Q01DX001 (ip), vehicle: saline) is 134 % of control [5 of 6 alive]. Also, the survivor count runs as follows: (dose: 75.0 mg/kg/injection, schedule: Q01DX009 (ip), vehicle: saline) 6 of 6; (dose: 150.0 mg/kg/injection, schedule: Q01DX009 (ip), vehicle: saline) 0 of 6; under setting [3], 2 of 6 and 5 of 6; (dose: 600.0 mg/kg/injection, schedule: Q01DX001 (ip), vehicle: saline) 5 of 6.

`c1ccc2c[n+](CCCCCCCCCC[n+]3ccc4ccccc4c3)ccc2c1`: the survivor count (dose: 8.0 mg/kg/injection, schedule: Q01DX009 (ip), vehicle: saline) was 6 of 6; the survivor count (dose: 16.0 mg/kg/injection, schedule: Q01DX009 (ip), vehicle: saline) was 6 of 6; the survivor count (dose: 32.0 mg/kg/injection, schedule: Q01DX009 (ip), vehicle: saline) is 2 of 6; the survivor count (dose: 45.0 mg/kg/injection, schedule: Q04DX003 (ip), vehicle: saline) is reported as 0 of 6; the survivor count (dose: 70.0 mg/kg/injection, schedule: Q04DX003 (ip), vehicle: saline) is 0 of 6; the survivor count (dose: 105.0 mg/kg/injection, schedule: Q04DX003 (ip), vehicle: saline) is reported as 0 of 6.

As for `N=C(N)SCc1cccc(Cl)c1`, the survivor count is 1 of 3 under setting [4], 0 of 3 under setting [5] and 0 of 3 under setting [6].

For `CCCC(C)C1(CC)C(=O)NC(=O)NC1=O` (stereo not drawn), the survivor count reads like this: (dose: 150.0 mg/kg/injection, schedule: Q01DX001 (ip), vehicle: saline) 2 of 6; (dose: 160.0 mg/kg/injection, schedule: Q04DX003 (ip), vehicle: saline) 4 of 6; (dose: 240.0 mg/kg/injection, schedule: Q01DX001 (ip), vehicle: saline) 0 of 6; under setting [3], 0 of 6; (dose: 365.0 mg/kg/injection, schedule: Q01DX001 (ip), vehicle: saline) 0 of 6.

In the case of `CC1CC(=O)C(CN(C)C)C(C)(C)C1` (stereo not drawn), the survivor count under setting [3] was 0 of 6.

For the compound `C=C(Br)CNCCCCCC`, the survivor count (dose: 50.0 mg/kg/injection, schedule: Q01DX009 (ip), vehicle: Klucel (hydroxypropylcellulose) (HPC)) is 5 of 6.

Regarding `N#C/C(=C\c1cccc(N)c1)c1ccccc1`, under setting [7], the survivor count is 3 of 6.

In the case of `CC(C)(C)OC1C2C=CC1C1C2C(C)(C)C1(C)C` (stereo not drawn), under setting [7], the survivor count is 6 of 6.

As to `CNCCCN(C)CCCNC`, the survivor count by setting is: under setting [8], 5 of 6; under setting [9], 1 of 6.

In the case of `CCc1ccccc1NC(=O)Nc1nccs1`, under setting [10], the survivor count is recorded as 2 of 6.

In the case of `CCN(CC)CCOC(=O)Nc1ccc(Cl)cc1`, the survivor count under setting [9] was 4 of 6.

Consider `Cc1cc(=O)oc2cc(O)ccc12`, for which, under setting [11], the survivor count is 2 of 6.

For the compound `O=NN1CCCCC1C(=O)O` (stereo not drawn), where the note is “dose: 400.0 mg/kg/injection, schedule: Q01DX001 (ip), vehicle: saline”, the survivor count is given as 1 of 4.

Consider `O=C(O)C1(C(=O)O)CC(c2ccccc2)C1`, for which the survivor count (dose: 75.0 mg/kg/injection, schedule: Q01DX009 (ip), vehicle: saline with Tween-80) is 6 of 6.

Regarding `C(=NC(c1ccccc1)(c1ccccc1)c1ccccc1)=NC(c1ccccc1)(c1ccccc1)c1ccccc1`, the survivor count (dose: 100.0 mg/kg/injection, schedule: Q01DX009 (ip), vehicle: gum acacia) was 5 of 5 and 6 of 6.

Take `Cc1ccc(S(=O)(=O)N(c2ccccc2)C(C)C(=O)c2ccccc2)cc1` (stereo not drawn): where the note is “dose: 50.0 mg/kg/injection, schedule: Q01DX001 (ip), vehicle: other”, the survivor count was 0 of 4.

In the case of `CC(C)C[As](=O)(O)CC(C)C`, the survivor count under setting [12] is reported as 2 of 6.

As to `N#CC12OC1(C#N)C(=O)c1ccccc1C2=O` (stereo not drawn), the survivor count is, setting by setting: (dose: 150.0 mg/kg/injection, schedule: Q01DX001 (ip), vehicle: Klucel (hydroxypropylcellulose) (HPC)) 0 of 6; (dose: 300.0 mg/kg/injection, schedule: Q01DX001 (ip), vehicle: Klucel (hydroxypropylcellulose) (HPC)) 0 of 6.

As to `CC1(C)N=C(N)N=C(N)N1c1ccc(OCC(=O)Nc2ccc(S(=O)(=O)F)cc2)c(Cl)c1`, the survivor count is, setting by setting: (dose: 100.0 mg/kg/injection, schedule: Q01DX009 (ip), vehicle: carboxymethylcellulose (CMC)) 5 of 6; under setting [13], 0 of 6; (dose: 400.0 mg/kg/injection, schedule: Q01DX009 (ip), vehicle: carboxymethylcellulose (CMC)) 0 of 6. In addition, the T/C is 133 % of control (dose: 100.0 mg/kg/injection, schedule: Q01DX009 (ip), vehicle: saline); 127 % of control under setting [13]; 137 % of control (dose: 200.0 mg/kg/injection, schedule: Q01DX009 (ip), vehicle: saline).

On to `CC(C)(C)OC(=O)N/N=C1\CC2CCC1C2` (stereo not drawn), for which the survivor count is 4 of 6 (dose: 200.0 mg/kg/injection, schedule: Q04DX003 (ip), vehicle: acetone) and 0 of 6 (dose: 400.0 mg/kg/injection, schedule: Q04DX003 (ip), vehicle: acetone).

`CN/N=C/c1ccc(C(=O)NC(C)C)cc1`: the survivor count under setting [11] is listed as 3 of 6.

Turning to `C=CS(=O)CCCCCCCC` (stereo not drawn), the survivor count (dose: 400.0 mg/kg/injection, schedule: Q04DX002 (ip), vehicle: Klucel (hydroxypropylcellulose) (HPC)) was 1 of 3.

For the compound `CCCCCCCCCCN=C(N)CSSCC(N)=NCCCCCCCCCC`, the survivor count runs as follows: (dose: 6.25 mg/kg/injection, schedule: Q04DX002 (ip), vehicle: saline with Tween-80) 0 of 3; (dose: 12.5 mg/kg/injection, schedule: Q04DX002 (ip), vehicle: saline with Tween-80) 0 of 3; (dose: 25.0 mg/kg/injection, schedule: Q04DX002 (ip), vehicle: saline with Tween-80) 0 of 3; under setting [4], 0 of 3; under setting [5], 0 of 3; under setting [6], 0 of 3.

Consider `CC(=O)Nc1ccc(OC(=O)Nc2cc(C(F)(F)F)ccc2Cl)cc1`, for which the survivor count under setting [10] was 5 of 6.

Regarding `COc1ccc2c(c1OC)C1(CCN(C)C)CC(O)CCC1C=C2` (stereo not drawn), the survivor count under setting [9] is 3 of 6.

In the case of `OC1CCCC[CH]1[Hg][Cl]` (stereo not drawn), the survivor count is reported as 2 of 6 under setting [1]; 1 of 6 under setting [2]; 0 of 6 (dose: 40.0 mg/kg/injection, schedule: Q01DX001 (ip), vehicle: saline); 1 of 6 (dose: 80.0 mg/kg/injection, schedule: Q01DX001 (ip), vehicle: saline).

`C=CC[P+](Cc1cccc(OC)c1)(c1ccccc1)c1ccccc1`: the survivor count reads like this: (dose: 50.0 mg/kg/injection, schedule: Q04DX003 (ip), vehicle: saline) 4 of 6; under setting [12], 2 of 6; under setting [8], 0 of 6; under setting [9], 0 of 6.

These data come from PubChem BioAssay AID248 (DTP/NCI, 2004).
